The supplement of paper PMC8256030
“And” between values parts separate entries of the source, which are not always exact repeats. Identical values can stand only once. Counter-ions that a name gives are not always drawn. The list shows a part of the results. Single values are uncertain here, since repeats match poorly.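 HEK293T cells were given each compound shortly before transfection with a reporter in which red mCherry is followed by the SARS-CoV-2 frameshift element and then GFP in the −1 frame, so GFP appears only after frameshifting.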

system: HEK293T; experiment: percent viability (nuclei count) relative to control; higher = more viable cells; conditions: 10 µM; 24 h

| SMILES | percent viability |
| --- | --- |
| CC1(C)S[C@@H]2[C@H](NC(=O)COc3ccccc3)C(=O)N2[C@H]1C(=O)O | 92% |
| CC[C@H]1OC(=O)[C@H](C)[C@@H](O[C@H]2C[C@@](C)(OC)[C@@H](O)[C@H](C)O2)[C@H](C)[C@@H](O[C@@H]2O[C@H](C)C[C@H](N(C)C)[C@H]2O)[C@](C)(O)C[C@](C)(F)C(=O)[C@H](C)[C@@H](O)[C@]1(C)O [flurithromycin] | 319% |
| C[C@]12CCC(=O)C=C1C=C[C@@H]1[C@@H]2CC[C@@]2(C)[C@H]1CC[C@@]21CCC(=O)O1 | 181% |
| CN(C)CCN(Cc1ccc(Cl)cc1)c1ccccn1 | 325% |
| CCN(CC)CCNc1ccc(C)c2sc3ccccc3c(=O)c12 [lucanthone] | 255% |
| CCOC(Nc1ccc(C(=O)O)cc1)C(=O)c1ccc(-c2ccccc2)cc1 (stereo not given) [xenazoic acid] | 140% |
| CC/C=C\C/C=C\C/C=C\C/C=C\C/C=C\CCCC(=O)O [icosapent] | 209% |
| N[C@@H](CSCC(=O)O)C(=O)O [carbocisteine] | 117% |
| O=C(Nc1ccc([N+](=O)[O-])cc1Cl)c1cc(Cl)ccc1O [niclosamide] | 381% |
| CC1(C)S[C@@H]2[C@H](NC(=O)C(C(=O)Oc3ccc4c(c3)CCC4)c3ccccc3)C(=O)N2[C@H]1C(=O)O (stereo not given in full) [carindacillin] | 131% |
| COc1ccc2c(c1)c(CC(=O)OCC(=O)O)c(C)n2C(=O)c1ccc(Cl)cc1 [acemetacin] | 164% and 273% |
| CN(C)CCn1cnc2c1c(=O)n(C)c(=O)n2C [dimethazan] | 128% |
| O=C(NCC1CCCO1)c1cc(Br)cc(Br)c1O (stereo not given) [fursalan] | 320% |
| CCCCOc1cc(C(=O)NCCN(CC)CC)c2ccccc2n1 [cinchocaine] | 138% |
| Nc1nc2c(ncn2COC(CO)CO)c(=O)[nH]1 [Ganciclovir] | 265% |
| O=[N+]([O-])c1ccc(/C=N/O)o1 [nifuroxime] | 232% |
| NC(=O)c1cnccn1 [pyrazinamide] | 133% |
| CN[C@H](CC(C)C)C(=O)N[C@H]1C(=O)N[C@@H](CC(N)=O)C(=O)N[C@H]2C(=O)N[C@H]3C(=O)N[C@H](C(=O)N[C@H](C(=O)O)c4cc(O)cc(O)c4-c4cc3ccc4O)[C@H](O[C@H]3C[C@](C)(N)[C@@H](O)[C@H](C)O3)c3ccc(c(Cl)c3)Oc3cc2cc(c3O[C@@H]2O[C@H](CO)[C@@H](O)[C@H](O)[C@H]2O[C@H]2C[C@](C)(NCc3ccc(-c4ccc(Cl)cc4)cc3)[C@@H](O)[C@H](C)O2)Oc2ccc(cc2Cl)[C@H]1O [oritavancin] | 271% |
| CNCCc1ccccn1 [betahistine] | 172% |
| O=C1CCC2CCC(=O)N12 [rolziracetam] | 162% |

| SMILES | percent viability |
| --- | --- |
| O=C(O)c1cc2cc(Cc3cccnc3)ccc2o1 [furegrelate] | 99.7% |
| COc1cc2c(c(OC)c1OC)-c1c(cc3c(c1OC)OCO3)C[C@H](C)[C@@](C)(O)C2 [besigomsin] | 232% |
| CCCCc1nc(Cl)c(CO)n1Cc1ccc(-c2ccccc2-c2nnn[nH]2)cc1 [Cozaar] | 67.6% |
| Cc1ccc(S(=O)(=O)NC(=O)NC2CCCCC2)cc1 [glycyclamide] | 275% |
| CCC[C@@H]1C[C@@H](C(=O)N[C@@H]([C@H]2O[C@H](SC)[C@H](O)[C@@H](O)[C@H]2O)[C@@H](C)O)N(C)C1 | 146% |
| COc1ccc(Cl)cc1C(=O)NCCc1ccc(C(=O)O)cc1 [meglitinide] | 157% |
| CCOc1cc(N)c(Cl)cc1C(=O)NCC1CN(Cc2ccc(F)cc2)CCO1 (stereo not given) [mosapride] | 187% |
| CCS(=O)(=O)c1cc2cc(C[C@](O)(CC(C)(C)c3ccc(F)cc3C(N)=O)C(F)(F)F)[nH]c2cn1 | 54.3% |
| C=CCSCC1Nc2cc(Cl)c(S(N)(=O)=O)cc2S(=O)(=O)N1 (stereo not given) [altizide] | 192% |
| CC(=O)OCC1=C(C(=O)O)N2C(=O)[C@@H](NC(=O)CSc3ccncc3)[C@H]2SC1 | 241% |
| CCOC(N)=O [urethane] | 125% |
| Cc1cccc(OCC(O)CNC(C)C)c1 (stereo not given) [toliprolol] | 222% |
| CCCCCCCCCCCCCCOS(=O)(=O)O [Sodium Tetradecyl Sulfate] | 214% |
| N=C(N)NCCC[C@H](N)C(=O)O [arginine] | 180% and 252% |
| Cn1nc(-c2cccc(F)c2)n(C)c1=S [suritozole] | 290% |
| CCN(CC)C(=O)c1cccc(C)c1 [diethyltoluamide] | 169% |
| CC(O)(CC(=O)O)CC(=O)O [meglutol] | 346% |
| CC(=O)[C@H]1CC[C@H]2[C@@H]3CC=C4C[C@@H](O)CC[C@]4(C)[C@H]3CC[C@]12C [pregnenolone] | 348% and 229% |
| CC[C@H]1OC(=O)[C@H](C)[C@@H](O[C@H]2C[C@@](C)(OC)[C@@H](O)[C@H](C)O2)[C@H](C)[C@@H](O[C@@H]2O[C@H](C)C[C@H](N(C)C)[C@H]2O)[C@](C)(O)C[C@@H](C)/C(=N\OCOCCOC)[C@H](C)[C@@H](O)[C@]1(C)O [roxithromycin] | 181% |
| CC(C)NCC(O)COc1cccc2ccccc12 (stereo not given) | 314% |
